The structures appear in SMILES notation. Bounds are passed on as bounds.

The test system of the experiment is Candida albicans ATCC 10231. As to the kind of experiment: Fluconazole MIC by E-test. Type of experiment: cell-based. The conditions noted are these: ATCC10231, E_test, range 0.016-256 μg/ml, read-out: MIC (minimum inhibitory concentration). From the text:
The strains of Candida being used in the present study were purchased from the American Type Culture Collection (ATCC). Specifically, the following biotypes were used: C. albicans ATCC 10231, C. parapsilosis ATCC 22019, C. krusei ATCC 6258, C. glabrata ATCC 2001 and C. tropicalis ATCC 750 (14). The strains of lactobacilli of this study, all isolated from vaginal swabs of healthy female subjects or directly brushing the intestinal mucosa of healthy humans, were classified based on their phenotypic and genotypic characteristics: L. fermentum LF5 (DSM 32277), L. fermentum LF09 (DSM 18298), L. fermentum LF10 (DSM 19187) and L. fermentum LF11 (DSM 19188).
Evaluation of the fungicidal activity. The minimum inhibitory concentration (MIC) for fluconazole was determined by E-test (bioMerieux Italy, Florence) with MHE agar. The plates were incubated under aerobic conditions at 30° C. and read after 24 hours. Furthermore, since there is no specific E-test for miconazole, the MIC was determined by using the broth macrodilution method. We assessed the activity of serially diluted fluconazole and miconazole (Sigma-Aldrich, Missouri, USA) (from […] to […]) against the Candida strains. […]

Consider `OC(Cn1cncn1)(Cn1cncn1)c1ccc(F)cc1F` [fluconazole], for which the MIC was > 256 µg/mL.

Values taken from patent US12343363B2, “Lactic acid bacterial composition for the treatment of bacterial vaginal infections by Gardnerella vaginalis and, if present, of concurrent fungal infections” (PROBIOTICAL S.P.A., priority 2016, dated 2025).
